Experimental data: PubChem BioAssay AID504467 (National Center for Advancing Translational Sciences (NCATS), 2011)
Screen size: about 330,000 compounds; about 7,700 (2.3%) were called active. Inconclusive means that the source gave no clear call. Such entries were picked first, then a sample of the others. The call rests on the fitted dose curve; in most records, active means well fitted inhibition curve with a large enough effect; inconclusive means small, poorly fitted or top-dose-only effect, or effect the other way; inactive means flat fitted curve, though single readings scatter. Potencies beside an inconclusive call are fits to weak or partial responses and may not hold up.
Potency means the concentration at half of the fitted maximal effect.

Assay: qHTS screen for small molecules that inhibit ELG1-dependent DNA repair in human embryonic kidney (HEK293T) cells expressing luciferase-tagged ELG1; further: nearly all actives have a fitted effect of over 55% in size
Details: HEK293T ELG1-luciferase reporter, luminescence, 16 h, DNA damage induced by 5-fluorouridine; series mostly up to 46.1 µM
Summary of the method: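 5-Fluorouridine DNA damage + compound/DMSO, 2,000 cells/well, 16 h, 37 °C/5% CO2. ONE-Glo, 30 min RT, luminescence. Readout = decrease in reporter signal.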
For CCCCn1ccnc1C(=O)c1ccc(S(=O)(=O)N2CCCC2)cc1, the Potency was inconclusive: 23.1 µM [inhibitor, single point]. For CCCCNS(=O)(=O)c1ccc2nc(SCC(=O)c3ccc(C#N)cc3)[nH]c2c1, the Potency was “inactive”. With O=C(CNS(=O)(=O)c1ccc(F)c(Cl)c1)N1CCCCCC1 the Potency was “inactive”. In the case of CNC(C)C(=O)NC(C(=O)N1CCCC1C(=O)NC1CCCc2ccccc21)C(C)C (configuration not stated), the Potency is reported as inconclusive: 23.1 µM [activator, partial curve, poor fit]. In the case of Cc1ccc(OCCNC(=O)c2cccc(C)c2)cc1, the Potency is reported as “inactive”. In the case of COc1cc(OC)c(C(=O)Nc2cc(Cl)ccc2-n2cncn2)cc1OC, the Potency is reported as inconclusive: 3.26 µM [inhibitor, partial curve, poor fit]. In the case of Cc1nnc(NC(=O)c2c(-c3ccccc3)noc2C)s1, the Potency is reported as “inactive”. In the case of O=C(CNC(=S)NC(=O)C1CCCCC1)c1ccccc1, the Potency is reported as inconclusive: 16.4 µM [activator, partial curve]. For CCOC(=O)C1=C(N)Oc2cc(O)ccc2C1c1cccc([N+](=O)[O-])c1 (configuration not stated), the Potency was “inactive”. In the case of Cc1ccc(C(=O)Nc2cnc3ccccn3c2=O)cc1, the Potency is reported as inconclusive: 5.17 µM [activator, partial curve]. For Cc1cc(/C=N/NC(=O)c2cccc([N+](=O)[O-])c2)c(C)n1-c1ccc(Cl)cc1Cl, the Potency was inconclusive: 29.1 µM [inhibitor, single point]. In the case of CC(C)OC(=O)/C(=C\c1cccnc1)NC(=O)c1ccccc1, the Potency is reported as “inactive”. In the case of Cn1cc(SCC(N)=O)c2ccccc21, the Potency is reported as inconclusive: 23.1 µM [activator, single point]. With O=C(NC1CC1)C1CCN(C2CCN(C(=O)CCOc3ccccc3)CC2)CC1 the Potency was “inactive”. In the case of CCOC(=O)Cn1nnc(-c2ccc(S(C)(=O)=O)cc2)n1, the Potency is reported as “inactive”. In the case of CCc1cccc(NC(=O)C2CCN(c3ncnc4sc(C)c(C)c34)CC2)c1, the Potency is reported as inconclusive: 10.3 µM [inhibitor, single point]. In the case of CC(NC(=O)Cc1ccc(S(=O)(=O)N2CCCCC2)cc1)c1ccccc1 (configuration not stated), the Potency is reported as “inactive”. For N/C(=N\NC(=O)c1ccc(Cl)cc1)c1cnccn1, the Potency was inconclusive: 14.6 µM [activator, partial curve]. With O=C(Nc1ccccc1)C1CCCN(C(=O)c2ccc(Cl)cc2)C1 (configuration not stated) the Potency was inconclusive: 29.1 µM [inhibitor, single point]. With CCOc1ccc(NC(=O)CSc2nc3ccccc3c(=O)n2Cc2cccs2)cc1 the Potency was “inactive”. For Cn1c(C(=O)N2CCN(c3ncccn3)CC2)cc2c(=O)n(C)c3ccccc3c21, the Potency was active: 9.2 µM. With CC(=O)N1CCN(CC(=O)Nc2ccc([N+](=O)[O-])cc2Br)CC1 the Potency was “inactive”. With C=C/C(C)=C/C[C@H]1C(=C)CCC2[C@](C)(C(=O)O)CCC[C@@]21C (some centres not stated) the Potency was inconclusive: 5.8 µM [activator, single point]. In the case of CC(=O)Nc1nc2cc3c(cc2s1)OCO3, the Potency is reported as inconclusive: 14.6 µM [activator, partial curve]. In the case of NC(=O)c1c(-c2ccc(Cl)cc2Cl)csc1NC(=O)Cc1ccccc1, the Potency is reported as inconclusive: 1.84 µM [inhibitor, partial curve]. With Cc1ccc(N(Cc2cc3ccc(C)cc3[nH]c2=O)C(=O)c2ccco2)c(C)c1 the Potency was inconclusive: 23.1 µM [inhibitor, single point]. For O=C(O)CSCC(=O)N1CCN(c2ccnc3cc(Cl)ccc23)CC1, the Potency was “inactive”. With COc1ccc(CNC(=O)[C@@H](NC(=O)C2CCN(S(=O)(=O)c3ccccc3)CC2)C(C)C)cc1 the Potency was “inactive”. For COC(=O)[C@]1(CC(C)C)N[C@H](c2ccc(SC3CCCCC3)cc2)[C@@H]2C(=O)N(C)C(=O)[C@@H]21, the Potency was “inactive”. For O=C(NC(=O)c1csnn1)Nc1ccccc1Cl, the Potency was inconclusive: 18.3 µM [activator, partial curve]. With COc1ccccc1CNS(=O)(=O)c1cc(C(=O)NCC2CCCO2)c(Cl)cc1Cl (configuration not stated) the Potency was “inactive”. With COc1ccc(CNC(=O)Cn2cccc2C(=O)c2ccccc2)cc1 the Potency was inconclusive: 16.4 µM [activator, single point]. With O=C(Nc1ccc2oc(-c3ccccc3Cl)nc2c1)c1ncn[nH]1 the Potency was inconclusive: 9.2 µM [activator, partial curve]. With C=CCn1c(CNC(=O)c2ccco2)nnc1SCC(=O)N1c2ccccc2Sc2ccccc21 the Potency was inconclusive: 18.4 µM [inhibitor, partial curve, poor fit]. For CCC(CO)Oc1cc(NC(=O)c2ccccc2Cl)c2ncn(C(C)C)c2c1 (configuration not stated), the Potency was inconclusive: 9.2 µM [inhibitor, partial curve]. In the case of CN(C)c1ccc(-c2ccccc2)nn1, the Potency is reported as inconclusive: 8.2 µM [activator, partial curve]. In the case of Cc1ccc(OCC(=O)Nc2ccccc2[N+](=O)[O-])c(Br)c1, the Potency is reported as inconclusive: 7.3 µM [activator, partial curve]. In the case of CCC(Oc1ccccc1)C(=O)N1CCN(S(=O)(=O)c2ccccc2)CC1 (configuration not stated), the Potency is reported as “inactive”. With CCOc1c(Br)cc(CNc2ccc(N3CCOCC3)cc2)cc1OC the Potency was inconclusive: 16.4 µM [inhibitor, single point]. With CC1Nc2ncnc(N3CCN(c4ccccc4)CC3)c2N(Cc2ccc(Br)cc2)C1=O (configuration not stated) the Potency was inconclusive: 3.98 µM [inhibitor, single point]. In the case of Fc1cccc(/C=N/N=C/c2cccc(F)c2)c1, the Potency is reported as inconclusive: 29.1 µM [activator, single point]. For C=COCCNC(=S)Nc1ccccc1, the Potency was inconclusive: 29.1 µM [inhibitor, single point]. For CCOC(=O)Cc1nnc(NCc2ccccc2)c2ccccc12, the Potency was inconclusive: 7.3 µM [inhibitor, partial curve, poor fit]. In the case of N#Cc1cccc(-n2nnnc2-c2ccccn2)c1, the Potency is reported as inconclusive: 16.4 µM [activator, partial curve]. For O=C(c1ccccc1Cl)N1CCC(O)(c2cccnc2)CC1, the Potency was “inactive”. With Cc1cc(C(=O)N/N=C/c2cccc3ccccc23)c(C)o1 the Potency was “inactive”. For CC(C)c1ccccc1NC(=S)NN(Cc1ccccc1)c1ccccc1, the Potency was “inactive”.
